Record: PubChem BioAssay AID1259290 (Sanger Institute, 2017)

- Screen: 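Kinases whose loss kills colorectal cancer cells alone or alongside targeted drugs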 (primary screen)
- Cells: human SNUC1 colorectal cancer cells
- Knock-down reagent: siRNA pool against human genes
- Conditions: anchor drugs BYL719 1 µM, cetuximab 5 µg/ml or trametinib 10 nM, or DMSO vehicle alone
- Measured: 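Viability averaged over replicates and scaled to non-targeting siRNA, robust z-score with no drug, and synergy scores by drug for BYL719, cetuximab and trametinib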
- Reading the numbers: viability z-score, siRNA alone: higher = more viable cells; low values mean essential gene; viability vs control, siRNA alone: higher = more viable cells; synergy score with BYL719 and synergy score with Cetuximab and synergy score with Trametinib: higher = stronger synthetic lethal effect with drug
- Active means: 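a knock-down without drug scoring a robust z under -3 counts as essential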
- Meaning of the calls: active = essential: knock-down alone cut viability (z below -3); inactive = no clear viability loss with knock-down alone
The deposit covers 794 reagents; shown is a random part of them. Over the whole deposit, 9 (1.1%) got an active call. 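Calls rest on knock-down alone, not drug synergy; synergy above 0.15 was grouped apart and does not affect calls.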 Viability is capped at 1. Not given: the amount of reagent, the time to read-out.

Gene	viability z-score, siRNA alone	viability vs control, siRNA alone	synergy score with BYL719	synergy score with Cetuximab	synergy score with Trametinib	call
SIK2	-1.88	0.746	-0.113	-0.0858	-0.172	inactive
CDKN1B	0.636	0.973	-0.0576	0.0496	-0.0264	inactive
DYRK3	-1.4	0.79	-0.187	0.144	-0.0776	inactive
GSK3A	0.58	0.968	-0.155	0.0194	-0.0557	inactive
FGR	0.171	0.931	-0.0447	0.104	0.129	inactive
PIP5K1B	0.867	0.994	-0.166	0.0316	0.163	inactive
GALK1	-2.06	0.73	-0.292	-0.0846	-0.184	inactive
WNK4	0.936	1	-0.198	-0.0447	-0.0444	inactive
RIOK1	0.601	0.97	0.0158	0.0555	-0.0104	inactive
GOLGA5	0.189	0.933	-0.137	-0.0289	-0.0225	inactive
TAOK3	-1.21	0.807	-0.0733	0.0269	0.0129	inactive
PASK	0.936	1	0.0173	-0.0447	0.118	inactive
CTCF	0.551	0.965	-0.0456	0.0577	0.0575	inactive
MST1R	0.936	1	-0.189	0.0249	0.0144	inactive
CDK18	0.936	1	-0.115	-0.0447	-0.0216	inactive
PTK7	-1.8	0.753	-0.138	0.073	0.00541	inactive
MAST1	-1.02	0.824	-0.026	-0.0793	0.0397	inactive
CSNK1A1	-0.711	0.852	-0.222	-0.00953	-0.0807	inactive
GUK1	-1.9	0.745	0.00515	0.0251	-0.0114	inactive
IRAK3	0.367	0.949	0.0616	0.095	0.121	inactive
MAP4K3	-0.0772	0.909	0.014	-0.0503	0.086	inactive
HUS1	-0.68	0.854	0.0641	0.0967	0.029	inactive
AURKB	-1.69	0.763	-0.0991	-0.0413	0.148	inactive
PIK3R5	0.113	0.926	-0.0483	0.068	-0.135	inactive
ABL2	-0.924	0.832	0.0363	0.0685	-0.0182	inactive
INSRR	-0.22	0.896	-0.236	0.0263	-0.0016	inactive
FGFR4	-1.43	0.787	-0.0818	-0.111	-0.0606	inactive
MASTL	0.0488	0.92	-0.262	-0.0105	0.0389	inactive
PAK3	0.827	0.99	0.141	0.0593	0.0747	inactive
STRADB	0.936	1	-0.198	-0.0255	-0.0551	inactive
PRKD3	-0.791	0.844	0.0278	-0.0506	0.0196	inactive
FYN	0.694	0.978	-0.216	-0.0656	-0.0938	inactive
PFKL	-0.987	0.827	-0.0939	-0.134	-0.134	inactive
TSSK6	0.3	0.943	-0.115	0.000352	0.0615	inactive
PRKCA	0.567	0.967	-0.167	0.0147	-0.0542	inactive
PIM3	-0.383	0.881	-0.0731	0.0704	0.0308	inactive
PRKACB	0.0339	0.919	-0.203	-0.122	-0.163	inactive
ITSN1	0.144	0.929	-0.118	0.018	0.0017	inactive
SYNCRIP	-0.611	0.861	-0.109	-0.025	0.115	inactive
ITPK1	0.545	0.965	-0.0181	-0.0213	0.0864	inactive
UCK2	0.936	1	0.0117	0.104	0.0814	inactive
MARK4	0.549	0.965	-0.226	-0.0699	-0.0616	inactive
PNCK	0.936	1	-0.0958	-0.0447	0.0819	inactive
STK17A	-1.38	0.792	-0.0958	0.0761	-0.00855	inactive
CREBBP	0.746	0.983	-0.15	0.018	0.0823	inactive
LRRK2	0.706	0.979	-0.111	-0.0447	0.0123	inactive
MAP3K13	-0.606	0.861	-0.31	-0.0862	-0.13	inactive
CHD4	-1.66	0.766	0.105	0.0402	0.00205	inactive
PAPSS1	0.169	0.931	-0.114	-0.0453	0.0714	inactive
GRK4	0.161	0.93	0.112	0.048	0.056	inactive

Limited to “viability z-score, siRNA alone” (3 entries from above):
GALK1 = -2.06
WNK4 = 0.936
RIOK1 = 0.601
